Experimental data reported in publication PMC2954829.
Results are given in words; binding and its absence hold for the method and conditions named. For some assays here: In cells and extracts the contact can be indirect. Where a sequence is shown, tags or fusion partners need not be part of it. Some binding calls cover weakened binding; strength is not graded here.

Chains of the proteins cited; added tags and fusions are not shown.
UniProt Q08297: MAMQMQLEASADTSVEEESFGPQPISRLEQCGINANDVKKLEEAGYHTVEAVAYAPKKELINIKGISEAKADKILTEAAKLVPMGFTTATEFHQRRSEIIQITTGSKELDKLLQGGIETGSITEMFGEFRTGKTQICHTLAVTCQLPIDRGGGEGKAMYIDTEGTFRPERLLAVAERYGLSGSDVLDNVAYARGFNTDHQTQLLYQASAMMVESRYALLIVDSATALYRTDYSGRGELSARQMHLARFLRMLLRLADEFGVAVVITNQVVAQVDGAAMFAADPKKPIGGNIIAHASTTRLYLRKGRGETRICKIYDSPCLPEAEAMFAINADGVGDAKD

T1: GST-Sfr1 (mouse) (UniProt Q8BP27)
T1 sequence: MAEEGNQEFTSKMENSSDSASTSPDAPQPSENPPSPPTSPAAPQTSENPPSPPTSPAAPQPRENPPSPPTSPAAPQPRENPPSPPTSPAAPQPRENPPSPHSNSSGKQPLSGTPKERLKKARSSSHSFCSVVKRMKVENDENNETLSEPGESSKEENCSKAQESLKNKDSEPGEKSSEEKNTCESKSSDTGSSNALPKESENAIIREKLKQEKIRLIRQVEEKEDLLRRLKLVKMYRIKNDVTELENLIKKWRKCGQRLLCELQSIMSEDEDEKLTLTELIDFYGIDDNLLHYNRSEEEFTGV


Experiments:
GST-Sfr1 (mouse) = molecular target: T1, GST-Sfr1 (mouse); test: pull-down; GST or GST fusion from E. coli lysate immobilized to MagneGST; mixed with E. coli lysate (40 µg of proteins) holding His6-Sfr1 or Rad51; R-buffer (20 mM Tris-HCl pH 7.6, 1 mM EDTA, 100 mM NaCl, 0.1% Triton X-100, 1 mM DTT, 10% glycerol), three hours at 4°C; CBB staining and Western blotting; for Rad51 also with ethidium bromide or DNase I; only the target purified
[1] = molecular target: mouse Sfr1 (303 amino acids), Gal4 fusion for yeast two-hybrid (mouse) (UniProt Q8BP27); test: two-hybrid; Matchmaker Two-Hybrid system 3 (Clontech), Gal4AD (pGADT7) and Gal4DBD (pGBKT7) fusions; growth on SD media without leucine, tryptophan, histidine and adenine

binding (GST-Sfr1 (mouse))	binding [1]	Molecule
no binding		recombinant Rad51 (from UniProt Q08297 1-339)
	binds	mouse Sfr1 (303 amino acids), Gal4 fusion for yeast two-hybrid (protein, UniProt Q8BP27-2 1-303) MAEEGNQEFTSKMENSSDSASTSPDAPQPSENPPSPPTSPAAPQTSENPPSPPTSPAAPQPRENPPSPPTSPAAPQPRENPPSPPTSPAAPQPRENPPSPHSNSSGKQPLSGTPKERLKKARSSSHSFCSVVKRMKVENDENNETLSEPGESSKEENCSKAQESLKNKDSEPGEKSSEEKNTCESKSSDTGSSNALPKESENAIIREKLKQEKIRLIRQVEEKEDLLRRLKLVKMYRIKNDVTELENLIKKWRKCGQRLLCELQSIMSEDEDEKLTLTELIDFYGIDDNLLHYNRSEEEFTGV
